No constants are given. Whether binding was seen depends on the method and setting. Binding seen in cells or lysates may run through a third protein. Some results given as binding are weak or reduced against the parent protein; the word gives no strength. For part of these data: Sequences can lack the tags named with a protein.
Columns and labels:
[1] = target: RA-Cdc42 (ddRFPA-fused Cdc42) (UniProt P60953); experiment: split reporter; dimerization-dependent red fluorescent protein: ddRFPB on the RBD, ddRFPA on the GTPase; HeLa cells also expressing the corresponding opto-GTPase, 458-nm laser every 10 s; Leibovitz's L-15 medium; fluorescence of the whole cell
[2] = target: T1, RA-RalB (ddRFPA-fused RalB) (UniProt P11234); experiment: as above
T1 sequence: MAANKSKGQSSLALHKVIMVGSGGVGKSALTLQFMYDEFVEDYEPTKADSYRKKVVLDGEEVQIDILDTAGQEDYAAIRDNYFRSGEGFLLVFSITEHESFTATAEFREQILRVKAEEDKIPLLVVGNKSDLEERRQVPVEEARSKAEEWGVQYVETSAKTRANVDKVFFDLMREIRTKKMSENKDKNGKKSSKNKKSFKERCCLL

By UniProt entry, the sequences of proteins in these tests, tags left out. Residues count along the entry.
UniProt P60953: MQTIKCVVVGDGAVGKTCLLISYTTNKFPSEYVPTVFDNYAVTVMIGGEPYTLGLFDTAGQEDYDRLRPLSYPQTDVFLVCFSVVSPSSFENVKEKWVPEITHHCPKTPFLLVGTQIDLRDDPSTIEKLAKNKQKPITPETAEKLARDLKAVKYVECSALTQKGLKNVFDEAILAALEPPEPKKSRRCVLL
UniProt Q13153, residues 69-109: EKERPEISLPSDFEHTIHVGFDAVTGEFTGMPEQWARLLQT
UniProt Q96KP1, residues 5-97: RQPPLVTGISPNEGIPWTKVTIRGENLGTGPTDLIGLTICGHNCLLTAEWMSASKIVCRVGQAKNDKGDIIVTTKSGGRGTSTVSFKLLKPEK

[3] = target: T1, RA-RalB (ddRFPA-fused RalB); experiment: split reporter; ddRFP biosensors in cells treated with lysophosphatidic acid (LPA) or epidermal growth factor (EGF); data not shown

“B3-RBD_(PAK1) (ddRFPB-fused RBD of PAK1, amino acids 69-109) (from UniProt Q13153 69-109) (domain or fragment)” was tested. Which binding [1] did it give?
Its binding is “binds”.

“B3-RBD_(Sec5) (ddRFPB-fused RBD of Sec5, amino acids 5-97) (from UniProt Q96KP1 5-97) (domain or fragment)” was tested. Which binding [2] did it give?
The binding was “binds”.

And the binding [3]?
Its binding is “binds”.

Source: paper PMC7949103
